Data on one substance can be found in US20190142913A1 (CREATIVE BIOTHERAPEUTICS, published 2019).

Sequences of proteins named here, by UniProt entry; tags and fusion partners are left off. Residues count along the entry.
UniProt Q01973, residues 30-937: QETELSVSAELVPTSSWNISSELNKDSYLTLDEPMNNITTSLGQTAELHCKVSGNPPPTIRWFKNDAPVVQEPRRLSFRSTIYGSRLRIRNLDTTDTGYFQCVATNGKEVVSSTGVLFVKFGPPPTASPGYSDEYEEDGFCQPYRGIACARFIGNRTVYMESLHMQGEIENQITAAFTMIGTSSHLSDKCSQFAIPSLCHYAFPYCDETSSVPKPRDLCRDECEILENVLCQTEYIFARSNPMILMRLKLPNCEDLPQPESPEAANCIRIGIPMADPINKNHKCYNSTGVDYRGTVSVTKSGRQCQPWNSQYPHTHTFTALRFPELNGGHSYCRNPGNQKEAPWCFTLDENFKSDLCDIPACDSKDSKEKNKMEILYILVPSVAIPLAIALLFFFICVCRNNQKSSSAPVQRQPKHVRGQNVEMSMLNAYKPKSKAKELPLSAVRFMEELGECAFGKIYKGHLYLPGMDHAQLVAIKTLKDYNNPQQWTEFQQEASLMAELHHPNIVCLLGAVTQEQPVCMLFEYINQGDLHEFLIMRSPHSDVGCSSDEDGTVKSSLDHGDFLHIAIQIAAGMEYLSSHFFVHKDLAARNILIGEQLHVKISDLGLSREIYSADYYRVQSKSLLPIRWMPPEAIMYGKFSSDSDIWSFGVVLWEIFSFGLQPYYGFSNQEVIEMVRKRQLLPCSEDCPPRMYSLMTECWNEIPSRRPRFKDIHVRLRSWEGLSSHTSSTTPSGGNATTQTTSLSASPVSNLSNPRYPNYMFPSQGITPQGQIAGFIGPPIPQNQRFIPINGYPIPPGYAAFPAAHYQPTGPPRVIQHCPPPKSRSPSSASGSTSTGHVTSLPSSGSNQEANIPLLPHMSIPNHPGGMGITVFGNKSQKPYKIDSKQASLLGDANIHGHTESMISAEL
UniProt P11021, residues 19-654: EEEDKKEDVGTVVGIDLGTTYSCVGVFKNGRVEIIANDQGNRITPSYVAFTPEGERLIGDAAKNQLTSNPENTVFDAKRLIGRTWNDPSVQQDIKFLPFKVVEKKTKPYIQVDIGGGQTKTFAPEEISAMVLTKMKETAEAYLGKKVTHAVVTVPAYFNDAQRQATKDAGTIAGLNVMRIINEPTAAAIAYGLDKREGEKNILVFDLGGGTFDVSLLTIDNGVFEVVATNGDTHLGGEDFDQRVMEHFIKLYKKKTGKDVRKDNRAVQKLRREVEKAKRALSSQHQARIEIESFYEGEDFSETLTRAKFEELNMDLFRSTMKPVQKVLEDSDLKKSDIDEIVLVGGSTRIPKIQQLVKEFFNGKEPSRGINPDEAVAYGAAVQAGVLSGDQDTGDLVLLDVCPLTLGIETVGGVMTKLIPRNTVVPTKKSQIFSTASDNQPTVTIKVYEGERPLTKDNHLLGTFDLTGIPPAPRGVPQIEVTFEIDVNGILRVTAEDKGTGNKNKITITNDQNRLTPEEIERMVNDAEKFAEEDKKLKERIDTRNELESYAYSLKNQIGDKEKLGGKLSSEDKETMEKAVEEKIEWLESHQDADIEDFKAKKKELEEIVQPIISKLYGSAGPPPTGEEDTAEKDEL

This assay deals with ROR1 (receptor tyrosine kinase-like orphan receptor 1) (human) (UniProt Q01973). As to the kind of experiment: pull-down from D54 glioma lysate with GRP78-Biotin on neutravidin-agarose, PAGE and mass spectrometry.

These are yes or no findings as the source states them, for the method shown. Binding seen in cells or lysates may run through a third protein. A yes stands for co-enrichment or nearness to the bait. Other partners may have been found.

On to “GRP78-Biotin (GRP78 (StressMarq) labeled with Biotin) (from UniProt P11021 19-654)”, for which the binding result was “binds”.
